We go through 1 compound from patent publication US20260184702A1, “SYNTHESIS, PHARMACOLOGY AND USE OF NEW WATER-SOLUBLE AND SELECTIVE FMS-LIKE TYROSINE KINASE3 (FLT3) INHIBITORS” (Universität Regensburg, priority 2022, published 2026).

What is called pIC50 is the IC50 on a negative log10 scale, so that one unit is a factor of ten. Higher therefore signals a small IC50.

The structures appear in SMILES notation. pIC50: −log10 of the molar value.

This assay deals with MV4-11 cells (FLT3-ITD positive). Nature of the assay: Cell Titer-Glo proliferation assay with MV4-11 cells. To be noted: Homo sapiens, MV4-11, 72 h. It counts as cell-based. On the procedure: MV4-11 cells are human acute myeloid leukemia cell lines that carry a FLT3-ITD mutation (American Type Culture Collection, ATCC, Manassas, VA, United States). Cells were cultured in IMDM medium plus 100 μg/mL penicillin, 100 μg/mL streptomycin and 10% FBS. All cells were kept at 37° C., 5% CO2.
Cell proliferation was assessed with Cell Titer-Glo® Viability Assay (Promega; Madison, WI, United States) according to the manufacturer's instructions. […]

In turn, `CN[C@@H]1C[C@H]2O[C@@](C)([C@@H]1OC)n1c3ccccc3c3c4c(c5c6ccccc6n2c5c31)C(=O)NC4` [Staurosporine, reference compound] gave a pIC50 of 10.22.
